PubChem BioAssay AID652243 | Drosophila RNAi Screening Center, 2013
In all, the deposit lists about 24,000 reagents; below is a random part of those with a known target gene and a result. In the full data, 246 (1%) are marked active. 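Plates not normalised; calls are printed but the firefly/Renilla ratio behind them is not deposited; fold cut for lowering reported inconsistently.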 Raw values vary from plate to plate and are shown uncorrected. The numbers tell different reagents against one gene apart. The record does not give: the amount of reagent.

Assay: 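Knock-downs that decrease or increase androgen receptor reporter signal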 (primary screen)
System: Drosophila S2R+ cells
Reagents: long dsRNA against Drosophila genes
Timing: 72 h (48 h, then 24 h hormone)
Challenge: synthetic androgen R1881 at 10 nM for 24 h
Measurement: 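Firefly light from an androgen-responsive reporter and Renilla control light per well, raw and unnormalised, for each of two replicates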
Direction: firefly reporter light: higher = more light from androgen-responsive reporter; Renilla control light: higher = more constitutive control signal (cell number, transfection)
Hit rule: 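Hit when the log firefly-to-Renilla ratio dropped or increased by a fixed fold versus the mean of GFP or LacZ controls across duplicate plates; lowering cut given as 1.5 and as 3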
Calls: active = hit: reporter lowered or raised; inactive = no hit

| Gene | reagent no. | firefly reporter light, replicate 1 | firefly reporter light, replicate 2 | Renilla control light, replicate 1 | Renilla control light, replicate 2 | call |
| --- | --- | --- | --- | --- | --- | --- |
| obst-B | 1 | 1.20e6 | 1.13e6 | 2.06e6 | 2.24e6 | inactive |
| CG14627 | 1 | 59716 | 67203 | 2.15e6 | 1.57e6 | inactive |
| CG13069 | 1 | 3.73e5 | 3.04e5 | 3.14e6 | 2.70e6 | inactive |
| APC4 | 1 | 1.10e5 | 50954 | 6.10e5 | 4.47e5 | inactive |
| APC4 | 2 | 3.85e5 | 4.54e5 | 1.01e6 | 1.17e6 | inactive |
| tutl | 1 | 60035 | 51776 | 4.62e5 | 6.67e5 | inactive |
| tutl | 2 | 1.05e5 | 1.04e5 | 7.90e5 | 8.13e5 | inactive |
| tutl | 3 | 66058 | 42550 | 5.94e5 | 4.33e5 | inactive |
| tutl | 4 | 2.32e5 | 2.01e5 | 4.74e5 | 6.73e5 | inactive |
| CG11052 | 1 | 96077 | 90882 | 1.72e6 | 1.69e6 | inactive |
| dpr20 | 1 | 8.20e5 | 7.73e5 | 1.45e6 | 1.41e6 | inactive |
| Ddr | 1 | 1.40e5 | 1.32e5 | 1.25e6 | 1.19e6 | inactive |
| Ddr | 2 | 4.33e5 | 4.44e5 | 3.00e6 | 3.22e6 | inactive |
| Ddr | 3 | 2.76e5 | 2.95e5 | 2.63e6 | 2.95e6 | inactive |
| Ddr | 4 | 6.00e5 | 1.10e6 | 6.95e5 | 1.28e6 | inactive |
| vtd | 1 | 6.67e5 | 7.29e5 | 1.17e6 | 1.35e6 | inactive |
| ema | 1 | 2.87e5 | 2.31e5 | 2.82e6 | 2.53e6 | inactive |
| Ir68b | 1 | 3.31e5 | 1.95e5 | 1.25e6 | 1.18e6 | inactive |
| CG30479 | 1 | 1.05e5 | 51210 | 2.14e6 | 2.14e6 | inactive |
| CG30479 | 2 | 3.93e5 | 3.66e5 | 1.71e6 | 1.68e6 | inactive |
| CG4325 | 1 | 9.72e5 | 8.73e5 | 1.44e6 | 8.86e5 | inactive |
| CG4325 | 2 | 2.28e5 | 2.06e5 | 6.44e5 | 6.52e5 | inactive |
| CG12689 | 1 | 2.80e5 | 3.99e5 | 2.67e6 | 2.61e6 | inactive |
| CG31093 | 1 | 1.14e5 | 1.44e5 | 1.63e6 | 1.94e6 | inactive |
| CG17776 | 1 | 4.03e5 | 4.10e5 | 3.70e6 | 2.73e6 | inactive |
| CG17776 | 2 | 5.36e5 | 4.46e5 | 8.84e5 | 1.25e6 | inactive |
| Arl6IP1 | 1 | 1.17e5 | 1.08e5 | 1.87e6 | 2.26e6 | inactive |
| Eglp3 | 1 | 2.11e5 | 1.84e5 | 1.06e6 | 1.01e6 | inactive |
| Eglp3 | 2 | 1.14e6 | 9.88e5 | 8.23e5 | 6.33e5 | inactive |
| GluProRS | 1 | 74799 | 92155 | 7.22e5 | 5.74e5 | inactive |
| Kaz-m1 | 1 | 1.04e5 | 1.56e5 | 1.94e6 | 2.49e6 | inactive |
| CG13711 | 1 | 2.02e5 | 2.19e5 | 9.81e5 | 1.60e6 | inactive |
| CG13711 | 2 | 8.77e5 | 4.82e5 | 9.18e5 | 1.29e6 | inactive |
| PGS1 | 1 | 3.33e5 | 2.62e5 | 2.89e6 | 2.93e6 | inactive |
| CR11235 | 1 | 4.19e5 | 1.57e5 | 1.01e6 | 5.63e5 | inactive |
| CR11235 | 2 | 8.24e5 | 7.43e5 | 1.26e6 | 1.34e6 | inactive |
| CG33792 | 1 | 1.38e6 | 1.18e6 | 2.63e6 | 2.07e6 | inactive |
| RpL21 | 1 | 1.54e5 | 2.60e5 | 1.04e6 | 1.08e6 | inactive |
| CG4375 | 1 | 1.17e5 | 1.60e5 | 8.44e5 | 8.00e5 | inactive |
| CG4375 | 2 | 9.97e5 | 7.73e5 | 1.33e6 | 1.40e6 | inactive |

Not a retest: an excerpt of the list.
| Gene | reagent no. | firefly reporter light, replicate 1 | firefly reporter light, replicate 2 | Renilla control light, replicate 1 | Renilla control light, replicate 2 | call |
| --- | --- | --- | --- | --- | --- | --- |
| tutl | 2 | 1.05e5 | 1.04e5 | 7.90e5 | 8.13e5 | inactive |
| tutl | 3 | 66058 | 42550 | 5.94e5 | 4.33e5 | inactive |
| tutl | 4 | 2.32e5 | 2.01e5 | 4.74e5 | 6.73e5 | inactive |
| CG11052 | 1 | 96077 | 90882 | 1.72e6 | 1.69e6 | inactive |
| dpr20 | 1 | 8.20e5 | 7.73e5 | 1.45e6 | 1.41e6 | inactive |
